# Laboratory results from the supplement of paper PMC8728848.
# This is one part of the list.
# B1: DC-Sign-R (Homo sapiens), Q9H2X3 (protein)
# chain: MSDSKEPRVQQLGLLEEDPTTSGIRLFPRDFQFQQIHGHKSSTGCLGHGALVLQLLSFMLLAGVLVAILVQVSKVPSSLSQEQSEQDAIYQNLTQLKAAVGELSEKSKLQEIYQELTQLKAAVGELPEKSKLQEIYQELTRLKAAVGELPEKSKLQEIYQELTRLKAAVGELPEKSKLQEIYQELTRLKAAVGELPEKSKLQEIYQELTELKAAVGELPEKSKLQEIYQELTQLKAAVGELPDQSKQQQIYQELTDLKTAFERLCRHCPKDWTFFQGNCYFMSNSQRNWHDSVTACQEVRAQLVVIKTAEEQNFLQLQTSRSNRFSWMGLSDLNQEGTWQWVDGSPLSPSFQRYWNSGEPNNSGNEDCAEFSGSGWNDNRCDVDNYWICKKPAACFRDE
# Columns and labels:
# Test in all cases: glycan array binding signal (z-score within array); higher = stronger binding
# Conditions in all cases: glycan notation: IUPAC condensed, linker removed
# [1] = molecular target: Gal(b1-4)GlcNAc(b1-3)Gal(b1-4)GlcNAc(b1-3)Gal(b1-4)GlcNAc
# Outline: (§1)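 Columns mapping to the same glycan were averaged after glycan names were converted to IUPAC-condensed notation. The data come from 3228 arrays in the Consortium for Functional Glycomics database, limited to those with an available protein sequence. Binding is reported as a within-array Z-score averaged across arrays of one protein sequence and across linkers.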
# [2] = molecular target: Gal(b1-4)GlcNAc(b1-3)Gal(b1-4)GlcNAc(b1-3)Gal(b1-4)GlcNAc(b1-2)Man(a1-3)[Gal(b1-4)GlcNAc(b1-3)Gal(b1-4)GlcNAc(b1-3)Gal(b1-4)GlcNAc(b1-2)Man(a1-6)]Man(b1-4)GlcNAc(b1-4)GlcNAc
# Outline: as §1
# [3] = molecular target: Gal(b1-4)GlcNAc(b1-3)Gal(b1-4)GlcNAc(b1-3)Gal(b1-4)GlcNAc(b1-2)Man(a1-3)[Gal(b1-4)GlcNAc(b1-3)Gal(b1-4)GlcNAc(b1-3)Gal(b1-4)GlcNAc(b1-2)Man(a1-6)]Man(b1-4)GlcNAc(b1-4)[Fuc(a1-6)]GlcNAc
# Outline: as §1
# [4] = molecular target: Gal(b1-4)GlcNAc(b1-3)Gal(b1-4)GlcNAc(b1-3)Gal(b1-4)GlcNAc(b1-2)[Gal(b1-4)GlcNAc(b1-3)Gal(b1-4)GlcNAc(b1-3)Gal(b1-4)GlcNAc(b1-6)]Man(a1-6)[Gal(b1-4)GlcNAc(b1-3)Gal(b1-4)GlcNAc(b1-3)Gal(b1-4)GlcNAc(b1-2)Man(a1-3)]Man(b1-4)GlcNAc(b1-4)[Fuc(a1-6)]GlcNAc
# Outline: as §1
# [5] = molecular target: Gal(b1-4)GlcNAc(b1-3)Gal(b1-4)GlcNAc(b1-3)Gal(b1-4)GlcNAc(b1-3)Gal(b1-4)GlcNAc(b1-2)Man(a1-3)[Gal(b1-4)GlcNAc(b1-3)Gal(b1-4)GlcNAc(b1-3)Gal(b1-4)GlcNAc(b1-3)Gal(b1-4)GlcNAc(b1-2)Man(a1-6)]Man(b1-4)GlcNAc(b1-4)GlcNAc
# Outline: as §1
# [6] = molecular target: Gal(b1-4)GlcNAc(b1-3)Gal(b1-4)GlcNAc(b1-3)Gal(b1-4)GlcNAc(b1-3)Gal(b1-4)GlcNAc(b1-2)Man(a1-3)[Gal(b1-4)GlcNAc(b1-3)Gal(b1-4)GlcNAc(b1-3)Gal(b1-4)GlcNAc(b1-3)Gal(b1-4)GlcNAc(b1-2)Man(a1-6)]Man(b1-4)GlcNAc(b1-4)[Fuc(a1-6)]GlcNAc
# Outline: as §1
# [7] = molecular target: Gal(b1-4)GlcNAc(b1-3)Gal(b1-4)GlcNAc(b1-3)Gal(b1-4)GlcNAc(b1-3)Gal(b1-4)GlcNAc(b1-2)[Gal(b1-4)GlcNAc(b1-3)Gal(b1-4)GlcNAc(b1-3)Gal(b1-4)GlcNAc(b1-3)Gal(b1-4)GlcNAc(b1-6)]Man(a1-6)[Gal(b1-4)GlcNAc(b1-3)Gal(b1-4)GlcNAc(b1-3)Gal(b1-4)GlcNAc(b1-3)Gal(b1-4)GlcNAc(b1-2)Man(a1-3)]Man(b1-4)GlcNAc(b1-4)[Fuc(a1-6)]GlcNAc
# Outline: as §1
# [8] = molecular target: Gal(b1-4)GlcNAc(b1-3)Gal(b1-4)GlcNAc(b1-3)Gal(b1-4)GlcNAc(b1-3)Gal(b1-4)GlcNAc(b1-3)Gal(b1-4)GlcNAc(b1-2)Man(a1-3)[Gal(b1-4)GlcNAc(b1-3)Gal(b1-4)GlcNAc(b1-3)Gal(b1-4)GlcNAc(b1-3)Gal(b1-4)GlcNAc(b1-3)Gal(b1-4)GlcNAc(b1-2)Man(a1-6)]Man(b1-4)GlcNAc(b1-4)GlcNAc
# Outline: as §1
# [9] = molecular target: Gal(b1-4)GlcNAc(b1-3)Gal(b1-4)GlcNAc(b1-3)Gal(b1-4)GlcNAc(b1-3)Gal(b1-4)GlcNAc(b1-3)Gal(b1-4)GlcNAc(b1-2)Man(a1-3)[Gal(b1-4)GlcNAc(b1-3)Gal(b1-4)GlcNAc(b1-3)Gal(b1-4)GlcNAc(b1-3)Gal(b1-4)GlcNAc(b1-3)Gal(b1-4)GlcNAc(b1-2)Man(a1-6)]Man(b1-4)GlcNAc(b1-4)[Fuc(a1-6)]GlcNAc
# Outline: as §1
# [10] = molecular target: Gal(b1-4)GlcNAc(b1-3)Gal(b1-4)GlcNAc(b1-3)Gal(b1-4)GlcNAc(b1-3)Gal(b1-4)GlcNAc(b1-3)Gal(b1-4)GlcNAc(b1-2)[Gal(b1-4)GlcNAc(b1-3)Gal(b1-4)GlcNAc(b1-3)Gal(b1-4)GlcNAc(b1-3)Gal(b1-4)GlcNAc(b1-3)Gal(b1-4)GlcNAc(b1-6)]Man(a1-6)[Gal(b1-4)GlcNAc(b1-3)Gal(b1-4)GlcNAc(b1-3)Gal(b1-4)GlcNAc(b1-3)Gal(b1-4)GlcNAc(b1-3)Gal(b1-4)GlcNAc(b1-2)Man(a1-3)]Man(b1-4)GlcNAc(b1-4)[Fuc(a1-6)]GlcNAc
# Outline: as §1
# [11] = molecular target: Gal(b1-4)GlcNAc(b1-3)Gal(b1-4)GlcNAc(b1-3)Gal(b1-4)GlcNAc(b1-3)Gal(b1-4)GlcNAc(b1-3)Gal(b1-4)GlcNAc(b1-3)Gal(b1-4)GlcNAc(b1-2)Man(a1-3)[Gal(b1-4)GlcNAc(b1-3)Gal(b1-4)GlcNAc(b1-3)Gal(b1-4)GlcNAc(b1-3)Gal(b1-4)GlcNAc(b1-3)Gal(b1-4)GlcNAc(b1-3)Gal(b1-4)GlcNAc(b1-2)Man(a1-6)]Man(b1-4)GlcNAc(b1-4)GlcNAc
# Outline: as §1
# [12] = molecular target: Gal(b1-4)GlcNAc(b1-3)Gal(b1-4)GlcNAc(b1-3)GalNAc
# Outline: as §1
# [13] = molecular target: Gal(b1-4)GlcNAc(b1-3)Gal(b1-4)GlcNAc(b1-3)[Gal(b1-4)GlcNAc(b1-3)Gal(b1-4)GlcNAc(b1-6)]GalNAc
# Outline: as §1
# [14] = molecular target: Gal(b1-4)GlcNAc(b1-3)Gal(b1-4)GlcNAc(b1-6)[Gal(b1-3)]GalNAc
# Outline: as §1
# [15] = molecular target: Gal(b1-4)GlcNAc(b1-3)Gal(b1-4)[Fuc(a1-3)]GlcNAc(b1-3)Gal(b1-4)[Fuc(a1-3)]GlcNAc
# Outline: as §1
# [16] = molecular target: Gal(b1-4)GlcNAc(b1-3)GalNAc
# Outline: as §1
# [17] = molecular target: Gal(b1-4)GlcNAc(b1-3)[Fuc(a1-3)GlcNAc(b1-6)]Gal(b1-4)Glc
# Outline: as §1
# [18] = molecular target: Gal(b1-4)GlcNAc(b1-3)[Gal(b1-4)GlcNAc(b1-6)]Gal(b1-4)GlcNAc
# Outline: as §1
# [19] = molecular target: Gal(b1-4)GlcNAc(b1-3)[GlcNAc(b1-6)]Gal(b1-4)GlcNAc
# Outline: as §1
binder,measurement,setting,value
B1,glycan array binding signal (z-score),[1],-0.561
same,glycan array binding signal (z-score),[2],0.694
same,glycan array binding signal (z-score),[3],0.712
same,glycan array binding signal (z-score),[4],1.57
same,glycan array binding signal (z-score),[5],-0.627
same,glycan array binding signal (z-score),[6],-0.503
same,glycan array binding signal (z-score),[7],0.809
same,glycan array binding signal (z-score),[8],0.946
same,glycan array binding signal (z-score),[9],-0.11
same,glycan array binding signal (z-score),[10],0.255
same,glycan array binding signal (z-score),[11],-0.523
same,glycan array binding signal (z-score),[12],0.037
same,glycan array binding signal (z-score),[13],0.59
same,glycan array binding signal (z-score),[14],0.681
same,glycan array binding signal (z-score),[15],0.294
same,glycan array binding signal (z-score),[16],-0.197
same,glycan array binding signal (z-score),[17],1.01
same,glycan array binding signal (z-score),[18],0.178
same,glycan array binding signal (z-score),[19],0.038

# Retrieved one by one from the list above:
binder,measurement,setting,value
B1,glycan array binding signal (z-score),[5],-0.627
same,glycan array binding signal (z-score),[10],0.255
